A short description of the data set: Detection of embigenin in fringed iris petals and leaves by HPLC pigment analysis. More on the design: species or system fringed iris (Iris japonica).

Data on one molecule can be found in patent publication US20240010998A1, “FLAVONE 4'-O-METHYLTRANSFERASE GENE AND USE FOR SAME” (SUNTORY HOLDINGS LIMITED, priority 2020, published 2024).

As to `COc1ccc(-c2cc(=O)c3c(O)c([C@@H]4O[C@H](CO)[C@@H](O)[C@H](O)[C@H]4O)c(OC)cc3o2)cc1` [Embigenin, 7,4′-dimethoxyisovitexin], the “Embigenin (mg content per 1 g dry weight)” value reads like this: (fringed iris leaves) 0.0 mg per 1 g dry weight; (fringed iris petals) 6.6 mg per 1 g dry weight.
